These are yes or no findings as the source states them, for the method shown. For some assays here: Binding seen in cells or lysates may run through a third protein. Some entries that bind do so weakly or less than the wild type. For some assays here: Sequences can lack the tags named with a protein.
T1: HA-tagged RPC5 Full Length (amino acids 1-708) (human) (UniProt Q9NVU0)
T1 sequence: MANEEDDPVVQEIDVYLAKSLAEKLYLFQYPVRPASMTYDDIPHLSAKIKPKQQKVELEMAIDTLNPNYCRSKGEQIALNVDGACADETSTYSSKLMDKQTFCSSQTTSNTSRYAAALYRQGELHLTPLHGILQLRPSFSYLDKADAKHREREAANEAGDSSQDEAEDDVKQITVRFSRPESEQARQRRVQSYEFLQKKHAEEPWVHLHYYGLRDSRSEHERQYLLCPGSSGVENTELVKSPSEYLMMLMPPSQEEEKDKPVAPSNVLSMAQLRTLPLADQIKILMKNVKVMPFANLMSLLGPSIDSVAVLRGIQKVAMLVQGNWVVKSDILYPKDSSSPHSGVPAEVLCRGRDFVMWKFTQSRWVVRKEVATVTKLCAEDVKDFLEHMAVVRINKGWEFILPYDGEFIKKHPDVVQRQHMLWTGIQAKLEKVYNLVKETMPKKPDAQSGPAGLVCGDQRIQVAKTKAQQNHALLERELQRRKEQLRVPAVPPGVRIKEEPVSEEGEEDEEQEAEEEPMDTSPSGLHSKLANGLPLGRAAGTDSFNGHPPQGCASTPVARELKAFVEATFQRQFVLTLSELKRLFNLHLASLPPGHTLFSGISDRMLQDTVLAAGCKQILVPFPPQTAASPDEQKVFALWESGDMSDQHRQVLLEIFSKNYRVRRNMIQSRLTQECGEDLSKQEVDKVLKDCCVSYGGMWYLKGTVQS

T2: HA-tagged RPC5ΔC (amino acids 1-253) (human) (UniProt Q9NVU0)
T2 sequence: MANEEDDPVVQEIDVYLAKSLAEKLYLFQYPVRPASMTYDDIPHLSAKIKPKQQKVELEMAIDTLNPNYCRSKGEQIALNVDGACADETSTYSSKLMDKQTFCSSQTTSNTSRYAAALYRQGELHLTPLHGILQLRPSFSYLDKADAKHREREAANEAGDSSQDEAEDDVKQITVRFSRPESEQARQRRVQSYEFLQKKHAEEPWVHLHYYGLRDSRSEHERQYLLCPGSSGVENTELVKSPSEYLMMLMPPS

B1: RPC2 (endogenous in HEK293T) (protein, UniProt Q9NW08 1-1133)
chain: MDVLAEEFGNLTPEQLAAPIPTVEEKWRLLPAFLKVKGLVKQHIDSFNYFINVEIKKIMKANEKVTSDADPMWYLKYLNIYVGLPDVEESFNVTRPVSPHECRLRDMTYSAPITVDIEYTRGSQRIIRNALPIGRMPIMLRSSNCVLTGKTPAEFAKLNECPLDPGGYFIVKGVEKVILIQEQLSKNRIIVEADRKGAVGASVTSSTHEKKSRTNMAVKQGRFYLRHNTLSEDIPIVIIFKAMGVESDQEIVQMIGTEEHVMAAFGPSLEECQKAQIFTQMQALKYIGNKVRRQRMWGGGPKKTKIEEARELLASTILTHVPVKEFNFRAKCIYTAVMVRRVILAQGDNKVDDRDYYGNKRLELAGQLLSLLFEDLFKKFNSEMKKIADQVIPKQRAAQFDVVKHMRQDQITNGMVNAISTGNWSLKRFKMDRQGVTQVLSRLSYISALGMMTRISSQFEKTRKVSGPRSLQPSQWGMLCPSDTPEGEACGLVKNLALMTHITTDMEDGPIVKLASNLGVEDVNLLCGEELSYPNVFLVFLNGNILGVIRDHKKLVNTFRLMRRAGYINEFVSISTNLTDRCVYISSDGGRLCRPYIIVKKQKPAVTNKHMEELAQGYRNFEDFLHESLVEYLDVNEENDCNIALYEHTINKDTTHLEIEPFTLLGVCAGLIPYPHHNQSPRNTYQCAMGKQAMGTIGYNQRNRIDTLMYLLAYPQKPMVKTKTIELIEFEKLPAGQNATVAVMSYSGYDIEDALVLNKASLDRGFGRCLVYKNAKCTLKRYTNQTFDKVMGPMLDAATRKPIWRHEILDADGICSPGEKVENKQVLVNKSMPTVTQIPLEGSNVPQQPQYKDVPITYKGATDSYIEKVMISSNAEDAFLIKMLLRQTRRPEIGDKFSSRHGQKGVCGLIVPQEDMPFCDSGICPDIIMNPHGFPSRMTVGKLIELLAGKAGVLDGRFHYGTAFGGSKVKDVCEDLVRHGYNYLGKDYVTSGITGEPLEAYIYFGPVYYQKLKHMVLDKMHARARGPRAVLTRQPTEGRSRDGGLRLGEMERDCLIGYGASMLLLERLMISSDAFEVDVCGQCGLLGYSGWCHYCKSSCHVSSLRIPYACKLLFQELQSMNIIPRLKLSKYNE
B2: RPC4 (endogenous in HEK293T) (protein, UniProt P05423 1-398)
chain: MSEGNAAGEPSTPGGPRPLLTGARGLIGRRPAPPLTPGRLPSIRSRDLTLGGVKKKTFTPNIISRKIKEEPKEEVTVKKEKRERDRDRQREGHGRGRGRPEVIQSHSIFEQGPAEMMKKKGNWDKTVDVSDMGPSHIINIKKEKRETDEETKQILRMLEKDDFLDDPGLRNDTRNMPVQLPLAHSGWLFKEENDEPDVKPWLAGPKEEDMEVDIPAVKVKEEPRDEEEEAKMKAPPKAARKTPGLPKDVSVAELLRELSLTKEEELLFLQLPDTLPGQPPTQDIKPIKTEVQGEDGQVVLIKQEKDREAKLAENACTLADLTEGQVGKLLIRKSGRVQLLLGKVTLDVTMGTACSFLQELVSVGLGDSRTGEMTVLGHVKHKLVCSPDFESLLDHKHR
B3: RPC1 (endogenous in HEK293T) (protein, UniProt O14802 1-1390)
chain: MVKEQFRETDVAKKISHICFGMKSPEEMRQQAHIQVVSKNLYSQDNQHAPLLYGVLDHRMGTSEKDRPCETCGKNLADCLGHYGYIDLELPCFHVGYFRAVIGILQMICKTCCHIMLSQEEKKQFLDYLKRPGLTYLQKRGLKKKISDKCRKKNICHHCGAFNGTVKKCGLLKIIHEKYKTNKKVVDPIVSNFLQSFETAIEHNKEVEPLLGRAQENLNPLVVLNLFKRIPAEDVPLLLMNPEAGKPSDLILTRLLVPPLCIRPSVVSDLKSGTNEDDLTMKLTEIIFLNDVIKKHRISGAKTQMIMEDWDFLQLQCALYINSELSGIPLNMAPKKWTRGFVQRLKGKQGRFRGNLSGKRVDFSGRTVISPDPNLRIDEVAVPVHVAKILTFPEKVNKANINFLRKLVQNGPEVHPGANFIQQRHTQMKRFLKYGNREKMAQELKYGDIVERHLIDGDVVLFNRQPSLHKLSIMAHLARVKPHRTFRFNECVCTPYNADFDGDEMNLHLPQTEEAKAEALVLMGTKANLVTPRNGEPLIAAIQDFLTGAYLLTLKDTFFDRAKACQIIASILVGKDEKIKVRLPPPTILKPVTLWTGKQIFSVILRPSDDNPVRANLRTKGKQYCGKGEDLCANDSYVTIQNSELMSGSMDKGTLGSGSKNNIFYILLRDWGQNEAADAMSRLARLAPVYLSNRGFSIGIGDVTPGQGLLKAKYELLNAGYKKCDEYIEALNTGKLQQQPGCTAEETLEALILKELSVIRDHAGSACLRELDKSNSPLTMALCGSKGSFINISQMIACVGQQAISGSRVPDGFENRSLPHFEKHSKLPAAKGFVANSFYSGLTPTEFFFHTMAGREGLVDTAVKTAETGYMQRRLVKSLEDLCSQYDLTVRSSTGDIIQFIYGGDGLDPAAMEGKDEPLEFKRVLDNIKAVFPCPSEPALSKNELILTTESIMKKSEFLCCQDSFLQEIKKFIKGVSEKIKKTRDKYGINDNGTTEPRVLYQLDRITPTQVEKFLETCRDKYMRAQMEPGSAVGALCAQSIGEPGTQMTLKTFHFAGVASMNITLGVPRIKEIINASKAISTPIITAQLDKDDDADYARLVKGRIEKTLLGEISEYIEEVFLPDDCFILVKLSLERIRLLRLEVNAETVRYSICTSKLRVKPGDVAVHGEAVVCVTPRENSKSSMYYVLQFLKEDLPKVVVQGIPEVSRAVIHIDEQSGKEKYKLLVEGDNLRAVMATHGVKGTRTTSNNTYEVEKTLGIEAARTTIINEIQYTMVNHGMSIDRRHVMLLSDLMTYKGEVLGITRFGLAKMKESVLMLASFEKTADHLFDAAYFGQKDSVCGVSECIIMGIPMNIGTGLFKLLHKADRDPNPPKRPLIFDTNEFHIPLVT
B4: Rpc5 (556-708) (domain or fragment, UniProt Q9NVU0 556-708)
chain: TPVARELKAFVEATFQRQFVLTLSELKRLFNLHLASLPPGHTLFSGISDRMLQDTVLAAGCKQILVPFPPQTAASPDEQKVFALWESGDMSDQHRQVLLEIFSKNYRVRRNMIQSRLTQECGEDLSKQEVDKVLKDCCVSYGGMWYLKGTVQS
B5: SeMet-Rpc5 (556-708) (domain or fragment, UniProt Q9NVU0 556-708)
chain: B4 chain
modifications: selenomethionine (SeMet) in place of methionine

Experiments:
[1] = biological target: T1, HA-tagged RPC5 Full Length (amino acids 1-708) (human); test: co-IP
[2] = biological target: T2, HA-tagged RPC5ΔC (amino acids 1-253) (human); test: co-IP
Rpc5 (556-708) (human) = Rpc5 (556-708) (human) (UniProt Q9NVU0); test: SAXS
[3] = biological target: SeMet-Rpc5 (556-708) (human) (UniProt Q9NVU0); test: crystal structure

Row | Binder | binding [1] | binding [2] | binding (Rpc5 (556-708) (human)) | binding [3]
1 | B1 | binds | binds | – | –
2 | B2 | binds | binds | – | –
3 | B3 | binds | binds | – | –
4 | B4 | – | – | no binding (tested: 3691 μM) | –
5 | B5 | – | – | – | no binding

Source: publication doi:10.1101/2020.06.29.177279
